Data as given in PubChem BioAssay AID1224828 (NIAID, 2016).
The whole screen tested about 17,000 reagents; below is a part drawn at random. 762 of all reagents (4.5%) count as active. 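Active calls include both raised and lowered p65 entry, mostly lowered; wells with fewer than 50 cells lack a z-score.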 The raw values are shown without normalisation. Unmarked entries are inactive. Reagents against one gene are numbered here. A reagent listed more than once was tested more than once; the source does not tell the runs apart. No sequences are given here.

- Assay: 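Regulators linking TLR4 signalling to p65 nuclear translocation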 (primary screen)
- System: mouse RAW264.7 G9 macrophage reporter cells (GFP-p65, Tnf promoter-mCherry)
- Reagent: siRNA pool against mouse genes, 100 nM
- Timing: 2 days siRNA transfection, then 40 min LPS before fixation
- Challenge: LPS (Salmonella minnesota R595) at 10 ng/ml
- Detection: 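Microscopy ratio of nuclear to perinuclear-ring GFP-p65 signal, scaled to the plate median; gene score is the average of two replicate robust z-scores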
- Scale: p65 translocation robust z-score: higher = more nuclear NF-kappaB p65 after LPS than the plate median; nuclear/cytoplasmic p65 ratio: higher = more nuclear NF-kappaB p65
- Hit rule: 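Active if robust z is above 3.3 (negative regulators) or below -1.56, the Tlr4 control median (positive regulators); activity score 50 or more; control wells not called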
- Calls: active = hit (p65 shift raised or lowered); inactive = no clear change

Target gene | pool no. | p65 translocation robust z-score | nuclear/cytoplasmic p65 ratio, rep 1 | nuclear/cytoplasmic p65 ratio, rep 2 | low cell count flag
Ppp1r14a (protein phosphatase 1, regulatory inhibitor subunit 14A) | 1 | -0.38 | 1.44 | 1.36 | enough cells to score
2300002M23Rik (RIKEN cDNA 2300002M23 gene) | 1 | – | 1.42 | 1.44 | fewer than 50 cells per well; well left out of scoring
Denr (density-regulated protein) | 1 | -0.9 | 1.41 | 1.44 | enough cells to score
Mmgt1 (membrane magnesium transporter 1) | 1 | 0.53 | 1.71 | 1.67 | enough cells to score
Gast (gastrin) | 1 | 0.34 | 1.46 | 1.43 | enough cells to score
Mkrn2 (makorin, ring finger protein, 2) | 1 | 1.54 | 1.99 | 1.86 | enough cells to score
Gucy1b2 (guanylate cyclase 1, soluble, beta 2) | 1 | -1.67 (active) | 1.38 | 1.31 | enough cells to score
Ggn (gametogenetin) | 1 | – | 1.04 | 1.3 | fewer than 50 cells per well; well left out of scoring
Arln (allregulin) | 1 | – | 1.29 | 1.18 | fewer than 50 cells per well; well left out of scoring
Rp1 (retinitis pigmentosa 1 (human)) | 1 | 0.56 | 1.6 | 1.59 | enough cells to score
Nostrin (nitric oxide synthase trafficker) | 1 | -0.9 | 1.65 | 1.35 | enough cells to score
Bcat1 (branched chain aminotransferase 1, cytosolic) | 1 | 0.86 | 1.79 | 1.7 | enough cells to score
Pkmyt1 (protein kinase, membrane associated tyrosine/threonine 1) | 1 | -0.47 | 1.62 | 1.32 | enough cells to score
Adra1a (adrenergic receptor, alpha 1a) | 1 | -1.81 (active) | 1.46 | 1.11 | enough cells to score
Adra1a (adrenergic receptor, alpha 1a) | 1 | -0.54 | 1.43 | 1.5 | enough cells to score
Sorbs1 (sorbin and SH3 domain containing 1) | 1 | -0.83 | 1.45 | 1.14 | enough cells to score
Lpcat1 (lysophosphatidylcholine acyltransferase 1) | 1 | -0.9 | 1.46 | 1.5 | enough cells to score
P2ry10 (purinergic receptor P2Y, G-protein coupled 10) | 1 | -1.66 (active) | 1.28 | 1.4 | enough cells to score
Glp2r (glucagon-like peptide 2 receptor) | 1 | 0.08 | 1.53 | 1.58 | enough cells to score
Plxna1 (plexin A1) | 1 | – | 1.62 | 1.2 | fewer than 50 cells per well; well left out of scoring
Krt19 (keratin 19) | 1 | -0.77 | 1.38 | 1.27 | enough cells to score
Asb8 (ankyrin repeat and SOCS box-containing 8) | 1 | – | 1.51 | 1.3 | fewer than 50 cells per well; well left out of scoring
Pla2g12b (phospholipase A2, group XIIB) | 1 | 2.06 | 1.52 | 1.45 | enough cells to score
Or9i1 (olfactory receptor family 9 subfamily I member 1) | 1 | -1.41 | 1.41 | 1.24 | enough cells to score
Sema6b | 1 | 0.55 | 1.58 | 1.68 | enough cells to score
Dedd (death effector domain-containing) | 1 | -0.57 | 1.38 | 1.32 | enough cells to score
Ptp4a3 (protein tyrosine phosphatase 4a3) | 1 | -0.82 | 1.46 | 1.23 | enough cells to score
Tmem179b (transmembrane protein 179B) | 1 | 0.18 | 1.38 | 1.63 | enough cells to score
Elac1 (elaC ribonuclease Z 1) | 1 | -1.25 | 1.32 | 1.18 | enough cells to score
Gpr179 (G protein-coupled receptor 179) | 1 | – | 1.17 | 1.55 | fewer than 50 cells per well; well left out of scoring
4930519G04Rik (RIKEN cDNA 4930519G04 gene) | 1 | – | 1.21 | 1.37 | fewer than 50 cells per well; well left out of scoring
Meox1 (mesenchyme homeobox 1) | 1 | 1.05 | 1.13 | 1.48 | enough cells to score
Avpr1b (arginine vasopressin receptor 1B) | 1 | -0.31 | 1.75 | 1.25 | enough cells to score
Avpr1b (arginine vasopressin receptor 1B) | 1 | 0.27 | 1.57 | 1.59 | enough cells to score
Or2y1b (olfactory receptor family 2 subfamily Y member 1B) | 1 | 1.45 | 1.89 | 1.78 | enough cells to score
A630001G21Rik (RIKEN cDNA A630001G21 gene) | 1 | – | 1.14 | 1.48 | fewer than 50 cells per well; well left out of scoring
Abhd11 (abhydrolase domain containing 11) | 1 | 0.11 | 1.56 | 1.59 | enough cells to score
Ascl2 (achaete-scute family bHLH transcription factor 2) | 1 | – | 1.2 | 1.31 | fewer than 50 cells per well; well left out of scoring
Slc43a1 | 1 | 0.26 | 1.55 | 1.56 | enough cells to score
Nhlrc2 (NHL repeat containing 2) | 1 | -1.95 (active) | 1.4 | 1.26 | enough cells to score
Xiap (X-linked inhibitor of apoptosis) | 1 | -1.05 | 1.52 | 1.4 | enough cells to score
Msrb1 (methionine sulfoxide reductase B1) | 1 | -1.3 | 1.27 | 1.08 | enough cells to score
Mmp23 (matrix metallopeptidase 23) | 1 | -0.24 | 1.44 | 1.29 | enough cells to score
3110009E18Rik (RIKEN cDNA 3110009E18 gene) | 1 | – | 1.32 | 1.14 | fewer than 50 cells per well; well left out of scoring
Prr5 (proline rich 5 (renal)) | 1 | -0.23 | 1.54 | 1.63 | enough cells to score
Ccdc68 (coiled-coil domain containing 68) | 1 | 1.51 | 1.93 | 1.79 | enough cells to score
Or4k15b (olfactory receptor family 4 subfamily K member 15B) | 1 | – | 1.41 | 1.23 | fewer than 50 cells per well; well left out of scoring
Slc4a3 | 1 | 0.21 | 1.51 | 1.58 | enough cells to score
Nat8f2 (N-acetyltransferase 8 (GCN5-related) family member 2) | 1 | -0.34 | 1.58 | 1.69 | enough cells to score
Them6 (thioesterase superfamily member 6) | 1 | – | 1.41 | 1.34 | fewer than 50 cells per well; well left out of scoring
Mid1 (midline 1) | 1 | 0.95 | 1.51 | 1.52 | enough cells to score
Cnih2 (cornichon family AMPA receptor auxiliary protein 2) | 1 | -0.02 | 1.61 | 1.76 | enough cells to score
Insm1 (insulinoma-associated 1) | 1 | -0.3 | 1.45 | 1.32 | enough cells to score
Srrm2 (serine/arginine repetitive matrix 2) | 1 | -0.72 | 1.43 | 1.46 | enough cells to score
Abi2 (abl interactor 2) | 1 | -0.71 | 1.58 | 1.43 | enough cells to score
Or5k14 (olfactory receptor family 5 subfamily K member 14) | 1 | 0.18 | 1.62 | 1.46 | enough cells to score
Or5k14 (olfactory receptor family 5 subfamily K member 14) | 2 | -1.47 | 1.38 | 1.3 | enough cells to score
Zdhhc4 (zinc finger, DHHC domain containing 4) | 1 | 0.2 | 1.53 | 1.19 | enough cells to score
Bicd1 (BICD cargo adaptor 1) | 1 | -0.73 | 1.54 | 1.47 | enough cells to score
